Reference: patent US7727960B2, “C5a receptor antagonists” (Jerini AG, priority 2003, dated 2010)
At least one peptide structure holds a part that was inferred or is arguable (an end, a ring closure or a residue). For some assays here: At least one structure is not confirmed: it was looked up by name or label, or the drawing left a doubt. Non-standard residues stand in square brackets, D forms with d. Residues, ends and D or L forms follow the SMILES beside them. Orn(2-imidazolinyl) = N[C@@H](CCCNC1=NCCN1)C(=O)O; Bta = N[C@@H](Cc1csc2ccccc12)C(=O)O; dCha = N[C@H](CC1CCCCC1)C(=O)O

Assays:
[1] = biological target: T1, human C5aR (CD88) (Homo sapiens, UniProt P21730); experiment: Determination of the IC50 value in an enzyme release assay (functional assay, antagonistic activity); assay type: cell-based; details: for inhibitory activity (in words): noteworthy = IC50 of less than 200 nM in the functional assay
T1 construct: expressed in transfected cells; host or cells: rat basophilic leukemia cells (RBL)
T1 sequence (P21730 1-350): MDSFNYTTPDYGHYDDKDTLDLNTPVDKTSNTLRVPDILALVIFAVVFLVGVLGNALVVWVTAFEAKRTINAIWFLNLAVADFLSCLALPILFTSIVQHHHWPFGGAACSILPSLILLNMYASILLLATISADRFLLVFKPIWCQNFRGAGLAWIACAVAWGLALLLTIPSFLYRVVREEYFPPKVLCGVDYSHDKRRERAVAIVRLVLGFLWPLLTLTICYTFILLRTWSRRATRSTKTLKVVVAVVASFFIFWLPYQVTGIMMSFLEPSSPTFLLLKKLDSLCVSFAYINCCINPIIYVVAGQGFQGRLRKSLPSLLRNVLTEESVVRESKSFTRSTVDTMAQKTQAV

[2] = biological target: T1, human C5aR (CD88); experiment: Determination of EC50 values in an enzyme release assay (agonistic activity, no C5a added); assay type: cell-based; details: cellular assay, up to a concentration of at least 1430 nM
Description: The determination of the EC50 value was performed in a way similar to the procedure described in example 11, with the only exception that 30 μl of the compound to be tested were mixed with 75 μl of the cell suspension described in example 11. There was no preincubation or addition of C5a for stimulation of the enzyme release.

Structure (SMILES): CCCC[C@@H]1NC(=O)[C@H](Cc2c[nH]c3ccccc23)NC(=O)[C@@H](CC2CCCCC2)NC(=O)[C@@H]2CCCN2C(=O)[C@@H](NC(=O)[C@H](Cc2ccccc2)NC(=O)CON=C[C@H](O)[C@@H](O)[C@H](O)[C@H](O)CO)CCCNC1=O (single isomer, unassigned) [Compound 333, Fck-[Phe-Orn-Pro-cha-Trp-Nle]]
- IC50 ([1]; antagonistic activity, enzyme release assay in RBL cells expressing human C5aR (CD88), read-out: activity (group)): 50 to 200 nM

Structure (SMILES): CCCC[C@@H]1NC(=O)[C@H](Cc2c[nH]c3ccccc23)NC(=O)[C@@H](CC2CCCCC2)NC(=O)[C@@H]2CCCN2C(=O)[C@@H](NC(=O)[C@H](Cc2ccccc2)NC(=O)CON=C[C@H](O)[C@@H](O)[C@H](O)[C@H](O)CO)CCCNC1=O [Compound 3, HOCH2(CHOH)4—C═N—O—CH2—CO-Phe-[Orn-Pro-cha-Trp-Nle]]
- agonistic activity (in words) [2]: pure antagonists
- inhibitory activity (in words) [1]: noteworthy inhibitory activity

Structure (SMILES): CC(=O)N[C@@H](Cc1ccccc1)C(=O)N[C@@H](CCCNC1=NCCN1)C(=O)N1CCC[C@H]1C(=O)N[C@H](CC1CCCCC1)C(=O)N[C@@H](Cc1csc2ccccc12)C(=O)N[C@@H](Cc1ccccc1)C(N)=O [Compound 150, Ac-Phe-Arg(CH2—CH2)-Pro-cha-Bta-Phe-NH2] (Ac-F[Orn(2-imidazolinyl)]P[dCha][Bta]F-NH2)
- agonistic activity (in words) [2]: pure antagonists
- inhibitory activity (in words) [1]: noteworthy inhibitory activity
